The supplement of paper PMC10849652
This is one part of the list.

Amino acid sequences for entries named in this document (tags omitted). A change or cut given only in a name is not applied to a line headed by its entry.
UniProt P10619: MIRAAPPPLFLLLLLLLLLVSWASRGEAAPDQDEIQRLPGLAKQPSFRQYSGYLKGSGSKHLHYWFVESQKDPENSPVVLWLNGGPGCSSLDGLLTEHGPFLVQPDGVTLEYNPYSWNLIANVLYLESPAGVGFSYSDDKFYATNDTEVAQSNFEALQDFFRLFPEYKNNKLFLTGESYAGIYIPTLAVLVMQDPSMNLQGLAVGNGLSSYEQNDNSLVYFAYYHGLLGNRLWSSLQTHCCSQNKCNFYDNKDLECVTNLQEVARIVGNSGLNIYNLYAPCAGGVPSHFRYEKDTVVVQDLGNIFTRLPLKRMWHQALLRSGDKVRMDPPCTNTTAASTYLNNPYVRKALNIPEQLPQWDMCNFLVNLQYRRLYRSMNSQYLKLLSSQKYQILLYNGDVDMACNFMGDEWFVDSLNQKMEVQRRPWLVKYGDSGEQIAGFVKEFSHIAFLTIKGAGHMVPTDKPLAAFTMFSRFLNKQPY
UniProt Q2NKJ3: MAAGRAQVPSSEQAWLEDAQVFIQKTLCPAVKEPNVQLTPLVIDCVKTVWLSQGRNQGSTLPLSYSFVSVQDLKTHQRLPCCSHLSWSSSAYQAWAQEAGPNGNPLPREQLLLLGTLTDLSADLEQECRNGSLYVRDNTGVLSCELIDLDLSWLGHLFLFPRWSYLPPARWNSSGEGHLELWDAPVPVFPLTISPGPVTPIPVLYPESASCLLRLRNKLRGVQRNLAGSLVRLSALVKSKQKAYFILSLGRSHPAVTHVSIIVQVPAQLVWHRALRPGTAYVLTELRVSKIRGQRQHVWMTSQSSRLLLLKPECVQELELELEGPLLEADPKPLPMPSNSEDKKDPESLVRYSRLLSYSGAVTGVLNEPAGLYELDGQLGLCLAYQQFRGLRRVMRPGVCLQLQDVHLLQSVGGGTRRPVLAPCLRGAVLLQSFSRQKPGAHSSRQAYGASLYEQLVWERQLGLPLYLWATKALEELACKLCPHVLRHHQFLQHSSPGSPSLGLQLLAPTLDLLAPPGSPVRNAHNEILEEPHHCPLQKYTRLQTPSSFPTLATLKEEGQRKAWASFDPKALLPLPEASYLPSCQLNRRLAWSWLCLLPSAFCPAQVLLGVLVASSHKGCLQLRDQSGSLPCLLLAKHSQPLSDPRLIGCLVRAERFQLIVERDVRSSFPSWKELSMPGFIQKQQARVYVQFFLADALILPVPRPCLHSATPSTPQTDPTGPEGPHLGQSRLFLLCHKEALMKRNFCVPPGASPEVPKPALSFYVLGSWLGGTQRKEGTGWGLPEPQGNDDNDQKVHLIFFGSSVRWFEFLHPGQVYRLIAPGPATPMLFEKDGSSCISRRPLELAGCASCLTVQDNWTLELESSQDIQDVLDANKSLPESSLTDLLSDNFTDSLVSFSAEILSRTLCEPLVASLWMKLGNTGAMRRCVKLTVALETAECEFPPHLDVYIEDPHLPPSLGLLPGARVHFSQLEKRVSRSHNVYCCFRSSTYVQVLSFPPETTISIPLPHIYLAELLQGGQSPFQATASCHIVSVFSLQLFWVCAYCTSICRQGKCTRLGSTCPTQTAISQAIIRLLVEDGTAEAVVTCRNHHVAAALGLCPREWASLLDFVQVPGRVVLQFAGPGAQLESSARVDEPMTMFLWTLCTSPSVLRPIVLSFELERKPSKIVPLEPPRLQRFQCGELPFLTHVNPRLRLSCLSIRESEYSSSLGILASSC
UniProt P08311: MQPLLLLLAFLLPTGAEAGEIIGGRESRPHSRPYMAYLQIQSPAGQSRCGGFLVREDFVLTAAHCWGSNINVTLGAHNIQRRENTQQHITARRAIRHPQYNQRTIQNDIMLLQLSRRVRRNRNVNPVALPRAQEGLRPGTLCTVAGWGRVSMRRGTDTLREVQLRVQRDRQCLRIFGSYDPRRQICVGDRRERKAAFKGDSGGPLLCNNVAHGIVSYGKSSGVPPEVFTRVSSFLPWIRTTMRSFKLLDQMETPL
UniProt P52943: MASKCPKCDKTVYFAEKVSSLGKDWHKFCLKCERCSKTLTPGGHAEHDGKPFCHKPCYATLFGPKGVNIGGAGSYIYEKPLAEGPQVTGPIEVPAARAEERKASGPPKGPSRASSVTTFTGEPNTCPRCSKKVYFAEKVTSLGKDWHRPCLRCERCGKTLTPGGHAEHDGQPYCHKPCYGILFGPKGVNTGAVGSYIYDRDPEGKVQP
UniProt Q9P2B4: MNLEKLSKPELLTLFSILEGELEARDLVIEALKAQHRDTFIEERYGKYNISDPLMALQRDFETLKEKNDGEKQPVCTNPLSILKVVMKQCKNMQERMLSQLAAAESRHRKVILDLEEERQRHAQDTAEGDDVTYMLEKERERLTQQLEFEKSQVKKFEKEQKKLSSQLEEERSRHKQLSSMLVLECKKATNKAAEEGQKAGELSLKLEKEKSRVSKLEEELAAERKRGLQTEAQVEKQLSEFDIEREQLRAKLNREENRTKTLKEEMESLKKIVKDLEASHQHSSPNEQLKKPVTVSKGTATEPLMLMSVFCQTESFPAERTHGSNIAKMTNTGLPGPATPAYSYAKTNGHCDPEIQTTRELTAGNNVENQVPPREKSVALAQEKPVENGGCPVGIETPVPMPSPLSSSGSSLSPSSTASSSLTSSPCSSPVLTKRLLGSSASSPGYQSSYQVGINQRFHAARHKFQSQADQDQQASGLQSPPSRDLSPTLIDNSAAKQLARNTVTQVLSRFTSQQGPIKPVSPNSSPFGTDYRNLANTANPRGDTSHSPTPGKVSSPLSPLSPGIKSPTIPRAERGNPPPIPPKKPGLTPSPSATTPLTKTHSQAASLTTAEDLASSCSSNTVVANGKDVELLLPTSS
UniProt P48729: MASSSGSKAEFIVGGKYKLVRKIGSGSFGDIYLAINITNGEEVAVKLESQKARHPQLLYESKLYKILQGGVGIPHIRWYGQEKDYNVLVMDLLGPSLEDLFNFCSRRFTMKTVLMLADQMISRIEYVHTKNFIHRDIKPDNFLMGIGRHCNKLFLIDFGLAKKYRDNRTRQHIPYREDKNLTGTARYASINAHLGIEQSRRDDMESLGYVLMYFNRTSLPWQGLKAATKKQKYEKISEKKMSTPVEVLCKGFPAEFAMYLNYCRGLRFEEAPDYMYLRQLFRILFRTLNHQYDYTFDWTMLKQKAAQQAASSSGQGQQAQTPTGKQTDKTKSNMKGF
UniProt Q7LFL8: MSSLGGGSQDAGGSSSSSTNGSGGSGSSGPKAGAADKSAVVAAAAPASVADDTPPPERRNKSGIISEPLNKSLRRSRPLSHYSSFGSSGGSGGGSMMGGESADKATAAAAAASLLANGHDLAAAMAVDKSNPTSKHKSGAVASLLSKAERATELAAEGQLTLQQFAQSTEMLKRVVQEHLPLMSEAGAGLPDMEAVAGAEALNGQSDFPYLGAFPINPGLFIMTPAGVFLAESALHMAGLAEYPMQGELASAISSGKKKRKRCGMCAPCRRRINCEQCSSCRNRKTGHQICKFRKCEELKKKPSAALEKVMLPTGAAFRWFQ
UniProt O95476: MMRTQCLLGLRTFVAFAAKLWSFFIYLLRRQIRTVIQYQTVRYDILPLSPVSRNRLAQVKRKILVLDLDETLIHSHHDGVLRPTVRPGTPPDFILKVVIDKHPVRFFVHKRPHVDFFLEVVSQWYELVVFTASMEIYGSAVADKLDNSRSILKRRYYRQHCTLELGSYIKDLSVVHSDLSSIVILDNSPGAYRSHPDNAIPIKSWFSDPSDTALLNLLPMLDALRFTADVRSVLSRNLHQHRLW
UniProt Q9UBG3: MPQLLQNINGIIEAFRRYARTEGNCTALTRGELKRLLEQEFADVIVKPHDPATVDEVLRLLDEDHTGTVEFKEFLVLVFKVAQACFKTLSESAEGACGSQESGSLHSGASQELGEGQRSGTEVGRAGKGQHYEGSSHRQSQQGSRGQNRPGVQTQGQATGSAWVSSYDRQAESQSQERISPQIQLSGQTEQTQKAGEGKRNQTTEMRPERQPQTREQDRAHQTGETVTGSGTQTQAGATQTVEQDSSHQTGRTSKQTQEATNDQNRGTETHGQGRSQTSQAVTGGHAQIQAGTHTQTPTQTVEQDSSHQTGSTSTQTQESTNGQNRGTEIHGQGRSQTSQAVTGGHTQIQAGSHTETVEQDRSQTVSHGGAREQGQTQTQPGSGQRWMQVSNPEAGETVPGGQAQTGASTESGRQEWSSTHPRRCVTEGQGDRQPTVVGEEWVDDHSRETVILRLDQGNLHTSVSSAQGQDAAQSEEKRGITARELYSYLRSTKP
UniProt O43310: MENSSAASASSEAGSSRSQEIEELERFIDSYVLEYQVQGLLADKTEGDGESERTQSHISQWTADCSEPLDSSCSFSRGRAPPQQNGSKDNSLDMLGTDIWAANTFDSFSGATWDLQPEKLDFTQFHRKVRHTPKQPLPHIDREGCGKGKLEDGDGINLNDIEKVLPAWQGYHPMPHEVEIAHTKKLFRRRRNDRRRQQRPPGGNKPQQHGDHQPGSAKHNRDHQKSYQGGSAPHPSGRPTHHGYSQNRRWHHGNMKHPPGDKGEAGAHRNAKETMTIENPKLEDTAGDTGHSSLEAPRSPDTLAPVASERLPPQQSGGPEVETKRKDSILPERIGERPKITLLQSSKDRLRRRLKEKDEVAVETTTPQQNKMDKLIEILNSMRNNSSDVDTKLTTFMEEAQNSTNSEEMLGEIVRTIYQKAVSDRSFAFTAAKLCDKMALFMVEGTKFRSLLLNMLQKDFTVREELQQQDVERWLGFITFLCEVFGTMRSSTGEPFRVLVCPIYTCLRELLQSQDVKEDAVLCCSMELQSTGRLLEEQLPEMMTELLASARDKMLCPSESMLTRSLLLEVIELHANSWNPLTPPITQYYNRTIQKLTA
UniProt Q9NSA3: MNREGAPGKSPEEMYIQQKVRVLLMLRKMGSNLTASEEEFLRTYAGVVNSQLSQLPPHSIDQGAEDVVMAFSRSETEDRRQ
UniProt P01036: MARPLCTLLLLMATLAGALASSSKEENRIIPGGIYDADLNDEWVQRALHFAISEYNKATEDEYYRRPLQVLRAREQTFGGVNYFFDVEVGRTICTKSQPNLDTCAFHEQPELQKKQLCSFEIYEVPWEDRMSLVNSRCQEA
UniProt P0C2W7: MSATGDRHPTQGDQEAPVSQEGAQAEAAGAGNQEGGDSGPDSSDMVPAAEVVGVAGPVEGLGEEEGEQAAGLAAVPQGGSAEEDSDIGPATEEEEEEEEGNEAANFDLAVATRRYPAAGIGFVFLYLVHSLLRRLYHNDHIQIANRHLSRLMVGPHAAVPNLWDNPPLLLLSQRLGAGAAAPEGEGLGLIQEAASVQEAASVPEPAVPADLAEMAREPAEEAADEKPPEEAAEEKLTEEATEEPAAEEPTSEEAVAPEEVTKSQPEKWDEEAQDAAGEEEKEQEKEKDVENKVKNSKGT
UniProt Q6UUV7: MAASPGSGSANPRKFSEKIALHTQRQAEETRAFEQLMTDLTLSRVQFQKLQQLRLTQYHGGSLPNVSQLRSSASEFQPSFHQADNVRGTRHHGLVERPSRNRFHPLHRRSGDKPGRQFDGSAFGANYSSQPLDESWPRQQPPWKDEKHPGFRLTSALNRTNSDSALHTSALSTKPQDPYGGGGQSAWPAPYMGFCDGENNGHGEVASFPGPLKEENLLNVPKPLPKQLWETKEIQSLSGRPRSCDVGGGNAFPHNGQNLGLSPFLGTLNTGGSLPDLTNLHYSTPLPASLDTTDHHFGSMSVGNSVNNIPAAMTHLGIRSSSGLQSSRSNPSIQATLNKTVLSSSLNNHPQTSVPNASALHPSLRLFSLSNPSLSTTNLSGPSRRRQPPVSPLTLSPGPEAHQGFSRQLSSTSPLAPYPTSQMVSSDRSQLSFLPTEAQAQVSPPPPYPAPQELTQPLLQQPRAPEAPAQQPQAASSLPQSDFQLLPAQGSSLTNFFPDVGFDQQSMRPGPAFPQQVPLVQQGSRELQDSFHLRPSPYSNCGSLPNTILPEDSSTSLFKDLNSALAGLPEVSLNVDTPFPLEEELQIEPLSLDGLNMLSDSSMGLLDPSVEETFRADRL
UniProt Q49AN0: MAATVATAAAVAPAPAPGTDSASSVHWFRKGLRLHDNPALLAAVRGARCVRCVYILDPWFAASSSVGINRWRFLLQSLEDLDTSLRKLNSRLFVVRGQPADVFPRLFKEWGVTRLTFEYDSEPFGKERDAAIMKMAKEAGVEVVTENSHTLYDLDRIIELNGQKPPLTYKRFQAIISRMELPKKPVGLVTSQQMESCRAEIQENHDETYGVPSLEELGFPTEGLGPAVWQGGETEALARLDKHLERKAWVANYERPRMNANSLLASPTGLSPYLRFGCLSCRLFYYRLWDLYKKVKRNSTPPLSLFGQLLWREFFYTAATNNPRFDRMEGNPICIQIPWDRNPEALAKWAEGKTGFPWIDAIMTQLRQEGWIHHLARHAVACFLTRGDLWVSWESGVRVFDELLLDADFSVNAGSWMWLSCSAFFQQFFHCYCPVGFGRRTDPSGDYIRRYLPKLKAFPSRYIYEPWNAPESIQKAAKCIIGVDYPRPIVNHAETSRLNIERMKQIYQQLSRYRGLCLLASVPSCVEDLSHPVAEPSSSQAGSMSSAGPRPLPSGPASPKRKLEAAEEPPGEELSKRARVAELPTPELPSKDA

Columns and labels:
Assay in all cases: log2 fold change, soluble protein after heating vs DMSO (PISA); higher = thermal stabilisation; K562 lysate, 10 uM; active = over 0.2 and 3.5 SD of the protein, either way, in both replicates (recomputed)
alvocidib = compound: CN1CC[C@H](c2c(O)cc(O)c3c(=O)cc(-c4ccccc4Cl)oc23)[C@H](O)C1 [alvocidib]
How it was run: (§1)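 Pellets of K562 cells were dounce-homogenised in PBS pH 7.4 with 1 mM MgCl2, and the crude extract was held at 1 mg/mL protein for a 30 min treatment with 10 μM compound. Aliquots were heated for 3 min over 48°C-58°C and pooled before NP-40 was added to 0.5% at 4°C. The supernatant from 21,000xg for 90 min was quantified by TMTpro 16plex LC-MS/MS with channel sums equalised. Values are reported from duplicates as log-two fold change in thermal stability relative to solvent controls.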

Tubastatin A = compound: CN1CCc2c(c3ccccc3n2Cc2ccc(C(=O)NO)cc2)C1 [Tubastatin A]
How it was run: as §1

[1] = compound: CNC(=O)C1=CC=CC=C1NC2=NC(=NC=C2Cl)NC3=C(C=C(C=C3)N4CCOCC4)OC
How it was run: as §1

defactinib = compound: CNC(=O)c1ccc(Nc2ncc(C(F)(F)F)c(NCc3nccnc3N(C)S(C)(=O)=O)n2)cc1 [defactinib]
How it was run: as §1

[2] = compound: CNc1nc(-c2ccc3c(N)n[nH]c3c2)cc(N2C[C@@H](C(=O)NC3CCCCC3)CC[C@H]2C)n1
How it was run: as §1

encorafenib = compound: COC(=O)N[C@@H](C)CNc1nccc(-c2cn(C(C)C)nc2-c2cc(Cl)cc(NS(C)(=O)=O)c2F)n1 [encorafenib]
How it was run: as §1

[3] = compound: COC(=O)[C@H](CCSC)NC(=O)C1=C(C=C(C=C1)NC[C@H](CS)N)C2=CC=CC=C2
How it was run: as §1

alisertib = compound: COc1cc(Nc2ncc3c(n2)-c2ccc(Cl)cc2C(c2c(F)cccc2OC)=NC3)ccc1C(=O)O [alisertib]
How it was run: as §1

[4] = compound: COc1cc2nc(-c3cc(F)ccc3O)nc(N[C@@H]3CNC[C@H]3C(C)(C)O)c2cc1OC
How it was run: as §1

gefitinib = compound: COc1cc2ncnc(Nc3ccc(F)c(Cl)c3)c2cc1OCCCN1CCOCC1 [gefitinib]
How it was run: as §1

Measured: log2 fold change

CTSA (UniProt P10619)
inactive: alvocidib -0.026 | Tubastatin A -0.03 | [1] -0.055 | defactinib 0.053 | [2] -0.049 | encorafenib -0.021 | [3] 0.076 | alisertib -0.066 | [4] -0.003 | gefitinib 0.018

CRTC1 (UniProt Q6UUV9)
inactive: alvocidib 0.004 | Tubastatin A 0.011 | [1] -0.005 | defactinib 0.077 | [2] 0.088 | encorafenib -0.025 | [3] -0.075 | [4] 0.012

CTC1 (UniProt Q2NKJ3)
inactive: alvocidib -0.032 | Tubastatin A -0.126 | [1] 0.034 | defactinib -0.014 | [2] -0.035 | encorafenib 0.028 | [3] 0.041 | alisertib 0.291 | gefitinib 0.294

CTNS isoform 2 (UniProt O60931)
inactive: alvocidib -0.322 | Tubastatin A -0.135 | defactinib 0.084 | [2] 0.358 | encorafenib -0.02 | [3] -0.157

CTSG (UniProt P08311)
inactive: alvocidib -0.249 | Tubastatin A 0.068 | [1] -0.121 | [2] 0.258 | alisertib 0.108 | gefitinib -0.081

CYBC1 (UniProt Q9BQA9)
inactive: alvocidib -0.096 | Tubastatin A -0.102 | [1] 0.06 | [2] -0.017 | encorafenib 0.036 | [3] -0.075 | alisertib 0.032 | [4] -0.018 | gefitinib 0.061

CRIP2 isoform 2 (UniProt P52943)
inactive: alvocidib 0.161 | Tubastatin A -0.035 | [1] 0 | [2] -0.116 | alisertib 0.143 | [4] 0.04 | gefitinib -0.132

CTTNBP2NL (UniProt Q9P2B4)
inactive: alvocidib 0.044 | Tubastatin A -0.059 | defactinib 0.064 | encorafenib 0.012 | [3] 0.096 | alisertib -0.095 | [4] 0.028 | gefitinib 0.067

CRISP3 isoform 3 (UniProt P54108)
inactive: alvocidib 0.093 | Tubastatin A 1.06 | [1] -0.247 | [2] 0.21 | alisertib -0.082 | gefitinib 0.087

CSGALNACT2 (UniProt Q8N6G5)
inactive: [1] 0.113 | [2] 0.135 | [4] -0.081

CRTC2 (UniProt H0YDQ8)
inactive: Tubastatin A -0.018 | defactinib 0.125

CSNK1A1 isoform 3 (UniProt P48729)
inactive: Tubastatin A -0.138 | [2] 0.068

3 successive entries out of the list so far, quoted:
CTSG (UniProt P08311)
inactive: alvocidib -0.249 | Tubastatin A 0.068 | [1] -0.121 | [2] 0.258 | alisertib 0.108 | gefitinib -0.081

CYBC1 (UniProt Q9BQA9)
inactive: alvocidib -0.096 | Tubastatin A -0.102 | [1] 0.06 | [2] -0.017 | encorafenib 0.036 | [3] -0.075 | alisertib 0.032 | [4] -0.018 | gefitinib 0.061

CRIP2 isoform 2 (UniProt P52943)
inactive: alvocidib 0.161 | Tubastatin A -0.035 | [1] 0 | [2] -0.116 | alisertib 0.143 | [4] 0.04 | gefitinib -0.132

Going on with the list:

CSNK1G3 isoform 4 (UniProt Q9Y6M4)
inactive: [4] 0.53

CSNK1G1 (UniProt Q9HCP0)
inactive: [1] -0.058 | [2] -0.018 | encorafenib -0.335 | [3] -0.239 | [4] 0.291

CXXC5 (UniProt Q7LFL8)
inactive: [2] 0.212

CRAT (UniProt P43155)
inactive: Tubastatin A -0.002 | [1] 0.044 | defactinib 0.022 | [2] 0.193 | [4] 0.058

CTDNEP1 (UniProt O95476)
inactive: [2] 0.009

CTRB2 (UniProt Q6GPI1)
inactive: alvocidib -0.109 | defactinib -0.093 | encorafenib 0.062 | [3] -0.008 | alisertib 0.043 | [4] 0.065 | gefitinib 0.087

CTBP1 (UniProt E7ESU7)
inactive: alisertib 0.272 | gefitinib -0.073

CROCCP2 (UniProt Q86T23)
inactive: [1] 0.025 | encorafenib 0.137 | [3] -0.015 | alisertib -0.082 | [4] -0.084 | gefitinib 0.204

CRNN (UniProt Q9UBG3)
inactive: defactinib 1.03 | alisertib -0.392 | gefitinib 0.289

CYLD (UniProt Q9NQC7)
inactive: [1] -0.045

CTIF (UniProt O43310)
inactive: defactinib -0.131

CRYL1 (UniProt Q9Y2S2)
inactive: [1] 0.223 | defactinib -0.383 | [2] 0.096 | [4] -0.038

CTCFL isoform 7 (UniProt Q8NI51)
inactive: encorafenib 0.056 | [3] 0.114 | alisertib -0.038 | gefitinib 0.046

CSPG5 isoform 2 (UniProt O95196)
inactive: Tubastatin A -0.172 | [1] -0.218 | defactinib 0.062 | alisertib 0.087 | gefitinib 0.118

CSAD isoform 3 (UniProt Q9Y600)
inactive: Tubastatin A 0.082 | [1] -0.044

CSRP2 (UniProt Q16527)
inactive: alvocidib -0.028 | encorafenib -0.046 | [3] -0.056

CTNNBIP1 (UniProt Q9NSA3)
inactive: [1] 0.126 | [2] 0.465

CST4 (UniProt P01036)
inactive: Tubastatin A 0.536 | [1] -0.054 | [2] -0.369 | encorafenib -0.177 | [3] -0.081 | [4] 0.115

CSRNP2 (UniProt Q9H175)
inactive: Tubastatin A -0.024 | [1] 0.008 | [2] 0.196

CT47B1 (UniProt P0C2W7)
inactive: Tubastatin A 0.076 | [1] -0.05 | defactinib 0.346 | [2] 0.026 | encorafenib -0.034 | [3] -0.057 | alisertib -0.028 | [4] 0.045 | gefitinib 0.122

CRTC3 (UniProt Q6UUV7)
inactive: Tubastatin A 0.044 | [1] -0.044 | defactinib 0.044 | [2] 0.091 | encorafenib 0.089 | [3] -0.066

CRY2 (UniProt Q49AN0)
inactive: alvocidib -0.106 | defactinib -0.145 | alisertib -0.024 | gefitinib 0.047

CYFIP1, A0A0G2JRV9
inactive: alisertib -0.321 | [4] 0.074 | gefitinib -0.246

CROCC2 (UniProt H7BZ55)
inactive: [1] 0.025 | [2] 0.11 | encorafenib 0.131 | [3] 0.184 | [4] 0.028

CS (UniProt F8VU34)
inactive: Tubastatin A 0.376 | [1] -0.13 | [2] 0.113 | [4] -0.345

CSNK2A1, A0A2R8Y4D6
inactive: [4] 0.06

CRAMP1 (UniProt Q96RY5)
inactive: defactinib 0.02 | [2] -0.027 | encorafenib 0.098 | [3] 0.106

CRY1 (UniProt Q16526)
inactive: alvocidib -0.132 | alisertib -0.055 | gefitinib -0.198

CXCL14 (UniProt O95715)
inactive: defactinib -0.235 | encorafenib -0.034 | [3] 0.066

CWC25 (UniProt Q9NXE8)
inactive: alvocidib -0.042 | defactinib -0.148 | encorafenib 0.012 | [3] -0.341 | alisertib -0.022 | [4] 0.061 | gefitinib -0.077
